Reference: the supplement of paper PMC11348887
Counter-ions that a name gives are not always drawn. The list shows a part of the results. Most values lie at the level of the controls, where differences are scatter. Where a SMILES comes first, the peptide text is derived from it.

Tested on: hPSC-derived cortical neurons (WA09)
Test: nucleus area z-score vs screen plate; higher = larger nuclei (more mature)
Conditions: 5 µM; treatment: days 7-14 after plating, readout day 21

Q: For `NCCS` [Cysteamine HCl], which nucleus area z-score is on record?
A: The nucleus area z-score was 0.00911.

Q: For `CN[C@@H]1[C@H](O)[C@H](NC)[C@H]2O[C@@]3(O)C(=O)C[C@@H](C)O[C@H]3O[C@@H]2[C@H]1O` [Spectinomycin HCl], which nucleus area z-score is on record?
A: Its nucleus area z-score is 0.0524.

Q: How did the nucleus area z-score turn out when `CN(C)c1ccc2nc3ccc(=[N+](C)C)cc-3sc2c1` [Methylene Blue] was run?
A: The nucleus area z-score was -3.21.

Tested on: hPSC-derived cortical neurons (WA09)
Test: total neurite length per nucleus (MAP2) z-score; higher = more neurite growth
Conditions: 5 µM; treatment: days 7-14 after plating, readout day 21

Q: How did the “total neurite length per nucleus (z-score)” value turn out when `C=C1CC[C@@H]2[C@](C)(CO)[C@H](O)CC[C@@]2(C)[C@@H]1C/C=C1/C(=O)OC[C@H]1O` [Andrographolide] was run?
A: The value was -0.911.

Q: Which “total neurite length per nucleus (z-score)” value does the source give for `CCC(=O)O[C@@H](O[P@](=O)(CCCCc1ccccc1)CC(=O)N1C[C@H](C2CCCCC2)C[C@H]1C(=O)O)C(C)C` [Fosinopril Sodium] here?
A: The value was -0.824.

Q: How did the “total neurite length per nucleus (z-score)” value turn out when `Cc1onc(-c2c(Cl)cccc2Cl)c1C(=O)N[C@@H]1C(=O)N2[C@@H]1SC(C)(C)[C@@H]2C(=O)O` [Dicloxacillin Sodium] was run?
A: Its value is -0.958.

Q: Which “total neurite length per nucleus (z-score)” value does the source give for `CCOc1cc(C(C)(C)C)ccc1C1=N[C@@](C)(c2ccc(Cl)cc2)[C@@](C)(c2ccc(Cl)cc2)N1C(=O)N1CCN(CCCS(C)(=O)=O)CC1` here?
A: Its value is 0.885.

Q: `CN1CCC(Nc2nc(Nc3ccc(Oc4ccccc4)cc3)c3c(=O)[nH]cc(Br)c3n2)CC1` was tested. Which “total neurite length per nucleus (z-score)” value did it give?
A: Its value is -4.32.

Q: `Oc1c(I)cc(I)c2cccnc12` [Diiodohydroxyquinoline] was tested. Which “total neurite length per nucleus (z-score)” value did it give?
A: Its value is 1.57.

Q: How did the “total neurite length per nucleus (z-score)” value turn out when `O=C1OC(CN2CCOCC2)CN1/N=C/c1ccc([N+](=O)[O-])o1` (stereo not drawn) [Furaltadone HCl] was run?
A: The value was 0.206.

Q: With `Cc1cccc(C)c1NC(=O)C1CCCCN1C` (stereo not drawn) [Mepivacaine HCl] as the compound, how does the “total neurite length per nucleus (z-score)” value read?
A: The value was -0.241.

Q: Which “total neurite length per nucleus (z-score)” value does the source give for `CC1(C)[C@H](C(=O)O)N2C(=O)C[C@H]2S1(=O)=O` [Sulbactam sodium] here?
A: The value was 0.281.

Q: For `COc1c(C)c(C(=O)c2ccc(N)c(C(=O)O)c2)n2ccccc12`, which “total neurite length per nucleus (z-score)” value is on record?
A: Its value is -0.034.

Q: Which “total neurite length per nucleus (z-score)” value does the source give for `COc1ccc2[nH]c([S+]([O-])Cc3ncc(C)c(OC)c3C)nc2c1` (stereo not drawn) [Omeprazole] here?
A: Its value is -2.23.

Q: With `O=C1O[C@H](CO)[C@@H](O)[C@H](O)[C@H]1O` [Gluconolactone] as the compound, how does the “total neurite length per nucleus (z-score)” value read?
A: Its value is 1.74.

Q: How did the “total neurite length per nucleus (z-score)” value turn out when `O=C(O)/C=C/c1ccc(Cn2ccnc2)cc1` [Ozagrel HCl] was run?
A: Its value is -0.233.

Q: How did the “total neurite length per nucleus (z-score)” value turn out when `CN1CCN(c2cccc(Nc3nc4c(-c5ccc(S(C)(=O)=O)cc5)cccn4n3)c2)CC1` was run?
A: Its value is 0.819.

Q: How did the “total neurite length per nucleus (z-score)” value turn out when `CC(C)C[C@H](NC(=O)[C@H](Cc1ccccc1)NC(=O)c1cnccn1)B(O)O` [Bortezomib (PS-341)] was run?
A: Its value is -3.24.

Q: For `CN1CCN(c2ccc(Nc3ncc4cc(C#N)c(=O)n(C5CCCC5)c4n3)cc2)CC1`, which “total neurite length per nucleus (z-score)” value is on record?
A: The value was -2.19.

Q: Which “total neurite length per nucleus (z-score)” value does the source give for `O=S(=O)(O)CCCS(=O)(=O)O` [Eprodisate disodium] here?
A: The value was 0.399.

Q: How did the “total neurite length per nucleus (z-score)” value turn out when `CCCCCCCCCCCCCCCCn1cc[n+](Cc2ccccc2)c1C` was run?
A: Its value is -4.76.

Q: With `C[C@@H](CN1CC(=O)NC(=O)C1)N1CC(=O)NC(=O)C1` [Dexrazoxane HCl (ICRF-187_ ADR-529)] as the compound, how does the “total neurite length per nucleus (z-score)” value read?
A: The value was 0.175.

Q: Which “total neurite length per nucleus (z-score)” value does the source give for `CO[C@H]1/C=C/O[C@@]2(C)Oc3c(C)c(O)c4c(O)c(c(/C=N/N5CCN(C)CC5)c(O)c4c3C2=O)NC(=O)/C(C)=C\C=C\[C@H](C)[C@H](O)[C@@H](C)[C@@H](O)[C@@H](C)[C@H](OC(C)=O)[C@@H]1C` [Rifampin] here?
A: The value was -0.104.

Q: For `CC1(C)O[C@@H]2C[C@H]3[C@@H]4CCC5=CC(=O)CC[C@]5(C)[C@@]4(F)[C@@H](O)C[C@]3(C)[C@]2(C(=O)CCl)O1` [Halcinonide], which “total neurite length per nucleus (z-score)” value is on record?
A: Its value is -0.293.

Q: For `Nc1cccc(-c2cc3c(Oc4cccc(O)c4)ncnc3[nH]2)c1`, which “total neurite length per nucleus (z-score)” value is on record?
A: Its value is 0.371.

Q: Which “total neurite length per nucleus (z-score)” value does the source give for `Nc1ccc(C(=O)Nc2cccc(-c3nc(N4CCOCC4)c4oc5ncccc5c4n3)c2)cn1` here?
A: The value was -0.937.

Q: `CN1CCN(C2=Nc3ccccc3Oc3ccc(Cl)cc32)CC1` [Loxapine Succinate] was tested. Which “total neurite length per nucleus (z-score)” value did it give?
A: The value was 0.908.

Q: For `C[C@H]1[C@H](C)CC[C@]2(C(=O)O)CC[C@]3(C)C(=CC[C@@H]4[C@@]5(C)CC[C@H](O)C(C)(C)[C@@H]5CC[C@]43C)[C@H]12` [Ursolic Acid], which “total neurite length per nucleus (z-score)” value is on record?
A: Its value is -0.758.

Q: Which “total neurite length per nucleus (z-score)” value does the source give for `COc1cc(O)c(CC=C(C)C)c(O)c1C(=O)/C=C/c1ccc(O)cc1` [Xanthohumol] here?
A: The value was -0.857.

Q: For `CC(C)NC[C@@H](C(=O)N1CCN(c2ncnc3c2[C@H](C)C[C@H]3O)CC1)c1ccc(Cl)cc1`, which “total neurite length per nucleus (z-score)” value is on record?
A: The value was -1.95.

Q: With `OCc1ccccc1` [Benzyl alcohol] as the compound, how does the “total neurite length per nucleus (z-score)” value read?
A: The value was -0.138.

Q: For `NC(=O)c1ncn([C@@H]2O[C@H](CO)[C@@H](O)[C@H]2O)c1O` [Mizoribine], which “total neurite length per nucleus (z-score)” value is on record?
A: The value was 0.207.

Q: `CC(C)(S)[C@@H](N)C(=O)O` [Penicillamine] was tested. Which “total neurite length per nucleus (z-score)” value did it give?
A: Its value is 0.349.

Q: Which “total neurite length per nucleus (z-score)” value does the source give for `CN(C)CC[C@H](CSc1ccccc1)Nc1ccc(S(=O)(=O)NC(=O)c2ccc(N3CCN(Cc4ccccc4-c4ccc(Cl)cc4)CC3)cc2)cc1[N+](=O)[O-]` here?
A: Its value is 0.858.

Q: `COCCOc1nc(-c2ccc(Cl)c(Cl)c2)n(-c2ccc(NC(=O)CCl)cc2)n1` [MI-2 (MALT1 inhibitor)] was tested. Which “total neurite length per nucleus (z-score)” value did it give?
A: The value was -2.28.

Q: For `O=C(CCCN1CCN(c2ccccn2)CC1)c1ccc(F)cc1` [Azaperone], which “total neurite length per nucleus (z-score)” value is on record?
A: The value was 0.463.

Q: Which “total neurite length per nucleus (z-score)” value does the source give for `O=C(/C=C/c1ccc(CN(CCO)CCc2c[nH]c3ccccc23)cc1)NO` [LAQ824 (Dacinostat)] here?
A: Its value is -2.99.

Q: How did the “total neurite length per nucleus (z-score)” value turn out when `CC(C)CC(NC(=O)C(Cc1ccccc1)NC(=O)C(CCC(N)=O)NC(=O)C(Cc1ccc(O)cc1)NC(=O)C(C)NC(=O)CNC(=O)C(CCCCN)NC(=O)C(Cc1c[nH]c2ccccc12)NC(=O)C(NC(=O)C(Cc1c[nH]c2ccccc12)NC(=O)C(CCCCN)NC(=O)CNC(=O)C(CC(N)=O)NC(=O)C(CCC(=O)O)NC(=O)C(Cc1c[nH]c2ccccc12)NC(=O)C(NC(=O)C(Cc1c[nH]c2ccccc12)NC(=O)C(CO)NC(=O)CNC(=O)C1CCCN1C(=O)C(Cc1c[nH]c2ccccc12)NC(=O)C(CCC(N)=O)NC(=O)C(Cc1ccccc1)NC(=O)CNC(=O)C(N)Cc1c[nH]cn1)C(C)O)C(C)O)C(=O)NC(CCCCN)C(=O)NCC(=O)NCC(=O)NCC(=O)NCC(=O)NC(CO)C(=O)NC(CCCNC(=N)N)C(=O)NC(CCCNC(=N)N)C(=O)NC(CCCNC(=N)N)C(=O)NC(CCCNC(=N)N)C(=O)NC(CCCNC(=N)N)C(=O)NC(CCCNC(=N)N)C(=O)NC(CCCNC(=N)N)C(=O)NC(CCCNC(=N)N)C(=O)NC(CCCNC(=N)N)C(=O)O` (stereo not drawn) (H-HGFQWPGSWTWENGKWTWKGAYQFLKGGGGSRRRRRRRRR-OH; configuration not given here) was run?
A: Its value is 0.0677.

Q: Which “total neurite length per nucleus (z-score)” value does the source give for `O=C(O)P(=O)(O)O` [Foscarnet Sodium] here?
A: Its value is 0.801.

Q: Which “total neurite length per nucleus (z-score)” value does the source give for `COc1nc(-c2ccc3c(c2)OCO3)n(-c2ccc(NC(=O)CSc3ccccc3)cc2)n1` [SecinH3] here?
A: The value was 0.273.

Q: How did the “total neurite length per nucleus (z-score)” value turn out when `NCCS` [Cysteamine HCl] was run?
A: Its value is -0.304.

Q: `CN[C@@H]1[C@H](O)[C@H](NC)[C@H]2O[C@@]3(O)C(=O)C[C@@H](C)O[C@H]3O[C@@H]2[C@H]1O` [Spectinomycin HCl] was tested. Which “total neurite length per nucleus (z-score)” value did it give?
A: The value was 0.684.

Q: For `CN(C)c1ccc2nc3ccc(=[N+](C)C)cc-3sc2c1` [Methylene Blue], which “total neurite length per nucleus (z-score)” value is on record?
A: Its value is 3.16.
